# Structures can show the parent of a compound that is named as a salt. Some of the results follow. The calls rarely recur for the same compound in another form.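 Kinases were expressed as nanoluciferase fusions in K562 cells and luminescence was read every 4 h between 2 and 18 h as percent of control, DMSO set to 100% and a positive control to 0%. A time point counts as decreased when the signal drops significantly (2 sigma). The hit call is the authors' own, does not follow from the count of time points alone, and its rule is not shown.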
# By UniProt entry, the sequences of proteins in these tests, tags left out. Where a name states a change or a piece, a line headed by the entry shows the natural chain unless it says otherwise.
# UniProt O75460: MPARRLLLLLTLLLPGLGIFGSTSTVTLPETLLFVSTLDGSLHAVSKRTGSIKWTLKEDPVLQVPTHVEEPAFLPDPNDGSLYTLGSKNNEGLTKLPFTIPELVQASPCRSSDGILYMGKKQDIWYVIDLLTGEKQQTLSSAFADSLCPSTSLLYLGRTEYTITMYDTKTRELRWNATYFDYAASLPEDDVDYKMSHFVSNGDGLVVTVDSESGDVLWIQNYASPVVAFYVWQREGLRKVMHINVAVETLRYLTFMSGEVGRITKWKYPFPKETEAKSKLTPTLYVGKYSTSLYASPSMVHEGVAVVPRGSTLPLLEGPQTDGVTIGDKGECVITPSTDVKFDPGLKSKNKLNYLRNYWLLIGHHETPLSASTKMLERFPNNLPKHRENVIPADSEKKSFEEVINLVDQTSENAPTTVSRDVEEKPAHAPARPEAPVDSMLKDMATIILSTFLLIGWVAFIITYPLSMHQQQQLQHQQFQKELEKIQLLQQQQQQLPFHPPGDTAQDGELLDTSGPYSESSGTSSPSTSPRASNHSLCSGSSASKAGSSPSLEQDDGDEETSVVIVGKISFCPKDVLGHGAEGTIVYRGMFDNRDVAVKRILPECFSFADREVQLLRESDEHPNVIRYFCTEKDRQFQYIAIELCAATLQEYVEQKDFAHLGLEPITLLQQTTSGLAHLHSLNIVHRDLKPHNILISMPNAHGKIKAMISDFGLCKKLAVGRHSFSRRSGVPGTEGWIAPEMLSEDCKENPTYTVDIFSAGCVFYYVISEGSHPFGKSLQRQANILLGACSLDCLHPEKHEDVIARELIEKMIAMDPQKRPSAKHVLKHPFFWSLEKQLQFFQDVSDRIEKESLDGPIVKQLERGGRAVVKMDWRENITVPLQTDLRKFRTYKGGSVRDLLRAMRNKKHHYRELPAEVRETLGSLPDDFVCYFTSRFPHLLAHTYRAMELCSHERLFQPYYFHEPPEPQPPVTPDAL
# UniProt P11362, whole entry, looked up: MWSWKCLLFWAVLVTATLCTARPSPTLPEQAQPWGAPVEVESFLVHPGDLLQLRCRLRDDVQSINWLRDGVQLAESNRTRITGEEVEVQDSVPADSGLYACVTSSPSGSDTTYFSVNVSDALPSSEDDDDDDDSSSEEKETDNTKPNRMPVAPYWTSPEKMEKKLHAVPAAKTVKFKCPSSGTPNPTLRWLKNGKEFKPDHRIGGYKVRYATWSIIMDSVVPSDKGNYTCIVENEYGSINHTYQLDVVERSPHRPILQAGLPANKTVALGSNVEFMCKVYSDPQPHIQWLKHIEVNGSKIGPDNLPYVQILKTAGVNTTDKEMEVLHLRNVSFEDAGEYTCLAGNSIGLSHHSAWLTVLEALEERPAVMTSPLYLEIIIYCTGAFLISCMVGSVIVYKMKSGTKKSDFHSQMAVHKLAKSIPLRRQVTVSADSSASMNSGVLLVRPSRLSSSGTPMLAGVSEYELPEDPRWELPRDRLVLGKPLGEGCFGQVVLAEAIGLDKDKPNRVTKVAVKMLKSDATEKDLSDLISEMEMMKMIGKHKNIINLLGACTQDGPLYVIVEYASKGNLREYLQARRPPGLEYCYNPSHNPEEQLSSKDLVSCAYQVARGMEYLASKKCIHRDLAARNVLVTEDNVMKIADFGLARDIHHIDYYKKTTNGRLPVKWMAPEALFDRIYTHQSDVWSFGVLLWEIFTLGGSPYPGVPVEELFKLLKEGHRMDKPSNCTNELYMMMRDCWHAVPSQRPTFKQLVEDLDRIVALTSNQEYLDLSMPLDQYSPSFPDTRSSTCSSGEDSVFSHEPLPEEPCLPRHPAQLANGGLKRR
# UniProt P21802, whole entry, looked up: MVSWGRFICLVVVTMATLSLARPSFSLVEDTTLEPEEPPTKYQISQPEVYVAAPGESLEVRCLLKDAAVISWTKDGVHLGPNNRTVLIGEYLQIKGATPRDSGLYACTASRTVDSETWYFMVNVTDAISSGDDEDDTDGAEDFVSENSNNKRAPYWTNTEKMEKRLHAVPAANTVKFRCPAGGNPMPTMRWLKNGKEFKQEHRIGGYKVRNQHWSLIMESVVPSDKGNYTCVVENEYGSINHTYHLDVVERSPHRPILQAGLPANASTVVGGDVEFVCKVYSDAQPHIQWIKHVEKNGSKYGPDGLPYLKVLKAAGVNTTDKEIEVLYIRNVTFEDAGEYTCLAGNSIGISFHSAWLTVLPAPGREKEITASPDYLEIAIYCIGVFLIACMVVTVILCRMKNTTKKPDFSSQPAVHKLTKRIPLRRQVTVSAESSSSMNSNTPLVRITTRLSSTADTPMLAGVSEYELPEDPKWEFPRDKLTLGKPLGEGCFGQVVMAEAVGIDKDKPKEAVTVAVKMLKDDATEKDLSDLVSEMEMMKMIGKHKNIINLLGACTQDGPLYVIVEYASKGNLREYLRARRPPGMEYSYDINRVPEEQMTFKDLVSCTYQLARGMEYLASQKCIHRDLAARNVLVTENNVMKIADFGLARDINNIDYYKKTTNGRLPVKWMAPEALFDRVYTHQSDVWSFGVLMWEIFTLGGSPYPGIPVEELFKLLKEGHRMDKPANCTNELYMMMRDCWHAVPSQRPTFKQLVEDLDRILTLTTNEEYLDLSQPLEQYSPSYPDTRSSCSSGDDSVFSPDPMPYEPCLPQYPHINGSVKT
# UniProt P36888, whole entry: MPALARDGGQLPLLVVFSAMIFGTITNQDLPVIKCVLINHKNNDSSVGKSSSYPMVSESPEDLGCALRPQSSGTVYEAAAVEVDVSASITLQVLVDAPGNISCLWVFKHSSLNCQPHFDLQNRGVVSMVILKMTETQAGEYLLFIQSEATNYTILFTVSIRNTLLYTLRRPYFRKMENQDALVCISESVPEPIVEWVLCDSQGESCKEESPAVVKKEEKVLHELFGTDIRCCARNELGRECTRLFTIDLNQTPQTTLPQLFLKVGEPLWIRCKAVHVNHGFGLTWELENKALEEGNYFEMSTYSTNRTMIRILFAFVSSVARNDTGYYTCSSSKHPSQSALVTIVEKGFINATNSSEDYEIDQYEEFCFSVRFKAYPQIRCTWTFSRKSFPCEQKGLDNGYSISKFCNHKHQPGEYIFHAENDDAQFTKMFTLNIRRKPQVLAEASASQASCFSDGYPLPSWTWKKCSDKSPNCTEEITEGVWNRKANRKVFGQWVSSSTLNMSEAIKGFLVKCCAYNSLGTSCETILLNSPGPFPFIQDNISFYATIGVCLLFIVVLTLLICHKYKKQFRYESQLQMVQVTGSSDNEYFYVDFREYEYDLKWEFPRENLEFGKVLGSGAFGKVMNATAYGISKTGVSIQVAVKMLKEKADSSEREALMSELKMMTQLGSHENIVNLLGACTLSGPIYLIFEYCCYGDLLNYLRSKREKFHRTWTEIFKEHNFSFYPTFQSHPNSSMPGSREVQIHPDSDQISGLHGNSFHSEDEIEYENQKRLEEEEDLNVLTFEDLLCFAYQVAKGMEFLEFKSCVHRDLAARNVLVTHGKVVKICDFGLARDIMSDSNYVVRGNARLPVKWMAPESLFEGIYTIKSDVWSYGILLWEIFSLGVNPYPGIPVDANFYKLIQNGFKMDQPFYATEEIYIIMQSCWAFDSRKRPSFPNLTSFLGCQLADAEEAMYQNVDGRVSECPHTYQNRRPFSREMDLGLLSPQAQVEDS
# UniProt P06241, whole entry, looked up: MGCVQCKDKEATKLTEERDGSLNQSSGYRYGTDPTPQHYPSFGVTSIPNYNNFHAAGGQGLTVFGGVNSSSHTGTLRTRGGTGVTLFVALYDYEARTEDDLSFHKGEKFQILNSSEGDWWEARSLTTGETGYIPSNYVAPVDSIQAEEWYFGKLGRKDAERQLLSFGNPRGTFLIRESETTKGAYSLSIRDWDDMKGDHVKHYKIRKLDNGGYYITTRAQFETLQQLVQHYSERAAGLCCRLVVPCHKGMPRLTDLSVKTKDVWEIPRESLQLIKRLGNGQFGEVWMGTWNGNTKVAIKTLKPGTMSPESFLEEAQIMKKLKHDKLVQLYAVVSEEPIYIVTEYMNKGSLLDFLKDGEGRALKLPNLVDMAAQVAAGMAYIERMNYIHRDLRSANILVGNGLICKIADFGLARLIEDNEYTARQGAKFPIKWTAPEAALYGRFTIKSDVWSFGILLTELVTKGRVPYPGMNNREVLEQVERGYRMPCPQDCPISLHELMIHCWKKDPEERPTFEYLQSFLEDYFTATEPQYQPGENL
# UniProt P23458: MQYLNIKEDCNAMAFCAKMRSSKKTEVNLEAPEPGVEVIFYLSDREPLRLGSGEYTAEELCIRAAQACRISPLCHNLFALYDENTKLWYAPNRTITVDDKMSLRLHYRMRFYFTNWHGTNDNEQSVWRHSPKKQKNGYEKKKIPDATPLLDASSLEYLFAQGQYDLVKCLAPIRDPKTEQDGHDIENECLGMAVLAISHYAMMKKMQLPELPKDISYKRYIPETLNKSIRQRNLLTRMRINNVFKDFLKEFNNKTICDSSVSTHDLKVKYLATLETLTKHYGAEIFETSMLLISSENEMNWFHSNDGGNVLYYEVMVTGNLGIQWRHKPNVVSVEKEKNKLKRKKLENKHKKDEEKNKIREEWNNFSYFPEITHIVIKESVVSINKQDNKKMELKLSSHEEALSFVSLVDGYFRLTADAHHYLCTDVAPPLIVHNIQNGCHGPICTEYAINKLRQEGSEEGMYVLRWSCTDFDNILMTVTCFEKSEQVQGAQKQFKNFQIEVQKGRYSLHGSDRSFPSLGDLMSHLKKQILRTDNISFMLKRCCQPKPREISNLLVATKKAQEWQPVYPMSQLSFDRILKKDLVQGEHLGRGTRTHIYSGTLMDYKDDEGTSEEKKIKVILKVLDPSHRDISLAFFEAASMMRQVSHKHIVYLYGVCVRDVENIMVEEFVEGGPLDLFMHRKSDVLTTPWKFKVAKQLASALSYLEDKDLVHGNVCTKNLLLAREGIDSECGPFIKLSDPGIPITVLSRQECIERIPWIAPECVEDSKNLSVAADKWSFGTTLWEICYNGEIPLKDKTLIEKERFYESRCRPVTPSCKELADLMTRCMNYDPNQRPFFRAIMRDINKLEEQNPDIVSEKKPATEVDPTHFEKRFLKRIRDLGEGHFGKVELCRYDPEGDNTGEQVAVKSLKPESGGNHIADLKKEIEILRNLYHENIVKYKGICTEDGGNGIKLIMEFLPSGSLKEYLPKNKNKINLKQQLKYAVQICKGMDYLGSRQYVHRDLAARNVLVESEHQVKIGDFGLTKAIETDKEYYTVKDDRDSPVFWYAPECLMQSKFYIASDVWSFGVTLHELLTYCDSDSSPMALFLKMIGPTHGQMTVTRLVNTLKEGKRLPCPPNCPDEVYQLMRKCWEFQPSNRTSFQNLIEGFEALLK
# UniProt P53667: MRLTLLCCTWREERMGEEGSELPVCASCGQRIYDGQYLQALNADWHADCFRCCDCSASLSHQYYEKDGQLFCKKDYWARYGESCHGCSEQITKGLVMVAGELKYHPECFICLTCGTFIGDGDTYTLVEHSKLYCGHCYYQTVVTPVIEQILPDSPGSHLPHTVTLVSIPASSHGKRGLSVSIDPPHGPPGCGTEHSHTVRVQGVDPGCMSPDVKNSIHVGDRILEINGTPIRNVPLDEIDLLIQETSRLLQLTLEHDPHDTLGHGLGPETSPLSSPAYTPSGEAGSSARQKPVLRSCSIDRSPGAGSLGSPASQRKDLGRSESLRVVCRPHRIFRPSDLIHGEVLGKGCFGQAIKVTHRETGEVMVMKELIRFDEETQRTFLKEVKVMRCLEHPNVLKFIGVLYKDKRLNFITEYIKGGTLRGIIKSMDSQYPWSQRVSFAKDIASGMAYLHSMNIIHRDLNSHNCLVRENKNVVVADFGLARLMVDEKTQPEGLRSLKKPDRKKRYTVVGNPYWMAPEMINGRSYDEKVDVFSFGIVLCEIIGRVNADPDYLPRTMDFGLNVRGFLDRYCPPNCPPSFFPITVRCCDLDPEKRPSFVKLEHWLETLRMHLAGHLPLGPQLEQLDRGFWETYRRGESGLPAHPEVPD
# UniProt P53671: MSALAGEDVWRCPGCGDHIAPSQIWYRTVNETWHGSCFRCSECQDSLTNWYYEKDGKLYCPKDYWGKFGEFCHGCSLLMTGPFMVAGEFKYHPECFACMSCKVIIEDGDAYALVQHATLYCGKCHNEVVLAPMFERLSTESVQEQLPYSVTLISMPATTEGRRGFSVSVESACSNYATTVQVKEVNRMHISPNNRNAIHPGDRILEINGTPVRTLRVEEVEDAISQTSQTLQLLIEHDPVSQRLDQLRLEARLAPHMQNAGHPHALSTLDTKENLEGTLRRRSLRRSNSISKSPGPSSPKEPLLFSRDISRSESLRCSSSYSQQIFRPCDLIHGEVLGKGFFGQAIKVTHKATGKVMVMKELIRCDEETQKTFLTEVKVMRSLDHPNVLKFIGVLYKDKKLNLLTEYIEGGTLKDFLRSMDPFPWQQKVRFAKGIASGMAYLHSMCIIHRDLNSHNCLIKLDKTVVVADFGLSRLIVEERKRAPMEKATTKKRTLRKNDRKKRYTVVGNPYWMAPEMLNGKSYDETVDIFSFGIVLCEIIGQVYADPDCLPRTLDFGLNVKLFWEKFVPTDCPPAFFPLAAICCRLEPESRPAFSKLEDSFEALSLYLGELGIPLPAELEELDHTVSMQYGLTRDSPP
# Columns and labels:
# Test in all cases: number of time points (of 5) at which kinase-Nluc abundance scored as decreased, DMSO-normalised (count); higher = more persistent destabilization
# Conditions in all cases: K562; 2-18 h
# EGFR_L861Q = EGFR_L861Q (UniProt P00533)
# EGFR_T790M = EGFR_T790M (UniProt P00533)
# EPHA2 = EPHA2 (UniProt P29317)
# ERBB3 = ERBB3 (UniProt P21860)
# [1] = molecular target: ERBB4_R711C (clone: ERBB4_mut) (UniProt Q15303)
# ERN1 = ERN1 (UniProt O75460)
# FGFR1 = FGFR1 (UniProt P11362)
# FGFR2 = FGFR2 (UniProt P21802)
# FGFR3 = FGFR3 (UniProt P22607)
# FGR = FGR (UniProt P09769)
# FLT3 = FLT3 (UniProt P36888)
# FYN = FYN (UniProt P06241)
# GSK3A = GSK3A (UniProt P49840)
# HER2 = HER2 (UniProt P04626)
# INSRR = INSRR (UniProt P14616)
# IRAK3 = IRAK3 (UniProt Q9Y616)
# JAK1 = JAK1 (UniProt P23458)
# LIMK1 = LIMK1 (UniProt P53667)
# LIMK2 = LIMK2 (UniProt P53671)
# LCK = LCK (UniProt P06239)
Structure (SMILES),number of time points (EGFR_L861Q),number of time points (EGFR_T790M),number of time points (EPHA2),number of time points (ERBB3),number of time points [1],number of time points (ERN1),number of time points (FGFR1),number of time points (FGFR2),number of time points (FGFR3),number of time points (FGR),number of time points (FLT3),number of time points (FYN),number of time points (GSK3A),number of time points (HER2),number of time points (INSRR),number of time points (IRAK3),number of time points (JAK1),number of time points (LIMK1),number of time points (LIMK2),number of time points (LCK)
CN1CCN(c2ccc(C(=O)Nc3n[nH]c4ccc(Cc5cc(F)cc(F)c5)cc34)c(NC3CCOCC3)c2)CC1 [Entrectinib] (2.5 µM),0,0,0,0,0,0,0,0,0,0,0,0,0,0,0,0,0,0,0,–
CN(C)C[C@@H]1CCn2cc(c3ccccc32)C2=C(C(=O)NC2=O)c2cn(c3ccccc23)CCO1 [Ruboxistaurin (hydrochloride)] (10 µM),0,0,0,0,0,0,0,0,0,0,0,0,0,0,0,0,0,0,0,–
CC(C)(C)n1nc(Cc2cccc3ccccc23)c2c(N)ncnc21 (10 µM),0,0,0,0,0,0,0,0,0,0,0,0,0,0,0,0,0,0,0,–
COCc1c(-c2ccc(NC(=O)Nc3cc(C(F)(F)F)ccc3F)c(F)c2)c2c(N)ncnn2c1CN1CCOCC1 (2.5 µM),0,0,0,0,0,0,0,3,0,0,0,0,0,0,0,0,0,0,0,0
Cc1ccc2c(Nc3ccc(Cl)cc3)nccc2c1Nc1ncccc1-c1ncnc2nc[nH]c12 [Raf inhibitor 1] (2.5 µM),0,0,0,0,0,0,0,0,0,0,0,0,0,0,0,0,0,0,0,–
CN(C)CCOc1ccc(-c2nc(-c3ccncc3)c(-c3ccc4c(c3)CC/C4=N\O)[nH]2)cc1 (10 µM),0,0,0,0,0,0,0,0,0,0,0,0,0,0,0,0,0,0,0,0
COc1cc2c(Nc3ccc(NC(=O)c4ccccc4)cc3)ncnc2cc1OCCCN1CCOCC1 (10 µM),0,0,0,0,0,0,0,0,0,0,0,4,0,1,0,0,0,0,0,–
Cc1cc(F)c(C(=O)Nc2cccc(-c3nncn3C(C)C)n2)cc1-n1cnc(C2CC2)c1 [Selonsertib] (10 µM),0,0,0,0,0,0,0,0,0,0,0,0,0,0,0,0,0,0,0,0
CCOc1cc2ncc(-c3cc(N)nc(F)c3)n2cc1S(=O)(=O)C(C)(C)C (10 µM),0,0,0,0,0,0,0,0,0,0,0,0,0,0,0,0,0,0,0,0
COc1cc(C(=O)NC2CCN(C)CC2)c(F)cc1Nc1ncc2c(n1)N(C1CCCC1)CC(F)(F)C(=O)N2C [TAK-960 (dihydrochloride)] (2.5 µM),0,0,0,0,0,0,0,0,0,0,0,0,0,0,1,0,1,0,0,0
COc1cc(OC)c(F)c(COc2cnc(Nc3cnn(CCO)c3)nc2)c1F (2.5 µM),2,0,0,0,2,0,0,0,–,0,0,0,0,1,1,0,2,1,3,0
CCCCNc1ncc(-c2ccc(CN3CCOCC3)cn2)c(NC2CCC(O)CC2)n1 (stereo unspecified) (10 µM),0,0,0,0,0,0,0,0,0,0,–,0,0,0,0,0,0,0,0,0
Cc1ccc(NC(=O)c2cccc(N(C)C)c2)cc1NC(=O)c1ccc(O)cc1 (10 µM),0,0,0,0,0,0,0,0,0,0,0,0,0,0,0,0,0,0,0,–
COc1ccc2c(C(=O)Nc3ccc(NC(=O)c4nn(C5CCN(C(=O)CC(C)(C)C#N)CC5)c5ccc(F)cc45)cc3Cl)cnn2c1 [Src Inhibitor 3] (2.5 µM),2,1,1,3,2,1,1,3,2,4,2,2,0,1,3,2,1,2,2,–
CN1CCN(S(=O)(=O)c2ccc(-c3cnc(N)c(C(=O)Nc4cccnc4)n3)cc2)CC1 (10 µM),0,0,0,0,1,0,0,0,0,0,0,0,0,0,0,0,0,0,0,0
CC(C)c1ccc2oc3nc(N)c(C(=O)O)cc3c(=O)c2c1 [Amlexanox] (10 µM),0,0,0,0,0,0,0,0,0,0,0,0,0,0,0,0,0,0,0,0
COc1cc2ncnc(Nc3ccc(O)cc3)c2cc1OC (10 µM),0,0,0,0,0,0,0,0,0,0,0,0,0,0,0,0,0,0,0,0
COCCOc1cc2nccc(Nc3n[nH]c(C)c3C)c2cc1S(=O)(=O)C(C)(C)C [RIP2 kinase inhibitor 2] (2.5 µM),0,0,0,0,0,0,0,0,0,0,0,0,0,0,0,0,0,0,0,0
C[C@H](CN(C)C)Oc1nc(Nc2cc3cccc(Cl)c3cn2)cnc1C#N (10 µM),0,0,0,0,0,0,0,0,0,0,0,0,0,0,0,0,0,0,0,0
COc1cc(Oc2ccnc3cc(OC)c(OC)cc23)ccc1NC(=O)NC(C)c1nccs1 (stereo unspecified) (2.5 µM),0,0,0,0,0,0,0,0,0,0,0,0,0,0,0,0,0,0,1,0
Cc1ccc(F)c(NC(=O)Nc2ccc(-c3cccc4[nH]nc(N)c34)cc2)c1 [Linifanib] (2.5 µM),0,0,2,0,0,0,5,0,0,0,0,0,0,0,0,0,0,0,0,0
Nc1nc(OCC2CCCCC2)c2[nH]cnc2n1 (10 µM),0,0,0,0,0,0,0,0,0,0,0,0,0,0,0,0,0,0,0,0
CCn1c(=O)c2cc(C(N)=O)c(N)nc2n(C2CC2)c1=O (10 µM),0,0,0,0,0,0,0,0,0,0,0,0,0,0,0,0,0,0,0,0
COc1ccc(NC(=O)N2CCN(c3nc(N)nc4c3cnn4C)[C@@H](C)C2)c(C)c1 (10 µM),0,0,0,0,0,0,0,0,0,0,0,0,0,0,0,0,0,0,0,0

# Another view of part of the listing above:
Structure (SMILES)	number of time points (EGFR_L861Q)	number of time points (EGFR_T790M)	number of time points (EPHA2)	number of time points (ERBB3)	number of time points [1]	number of time points (ERN1)	number of time points (FGFR1)	number of time points (FGFR2)	number of time points (FGFR3)	number of time points (FGR)	number of time points (FLT3)	number of time points (FYN)	number of time points (GSK3A)	number of time points (HER2)	number of time points (INSRR)	number of time points (IRAK3)	number of time points (JAK1)	number of time points (LIMK1)	number of time points (LIMK2)	number of time points (LCK)
Cc1cc(F)c(C(=O)Nc2cccc(-c3nncn3C(C)C)n2)cc1-n1cnc(C2CC2)c1 [Selonsertib] (10 µM)	0	0	0	0	0	0	0	0	0	0	0	0	0	0	0	0	0	0	0	0
CCOc1cc2ncc(-c3cc(N)nc(F)c3)n2cc1S(=O)(=O)C(C)(C)C (10 µM)	0	0	0	0	0	0	0	0	0	0	0	0	0	0	0	0	0	0	0	0

# Reference: the supplement of paper PMC12823440, “Inhibitors supercharge kinase turnover through native proteolytic circuits” (Nature, 2025)
